PubChem BioAssay AID1159578, Peter MacCallum Cancer Centre | 2015
Shown is an unselected part of about 18,000 deposited reagents. Of all reagents, about 1,030 (5.7%) got an active call. 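Inactive calls also include pools with fewer than 3300 nuclei, whose migration was not assessed.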 Raw values vary from plate to plate and are shown uncorrected. Not all columns of the deposit are shown. Reagent sequences are not shown.

Screen: 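siRNA pools altering how lymphatic endothelial cells close a scratch wound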 (primary screen)
Cell system: human lymphatic endothelial cells
Reagents: siRNA pool against human genes, 40 nM
Duration: 48 h after transfection
Read-out: 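Cells stained with dye and imaged after a scratch; covered wound area and nuclei counted, duplicates averaged, migration set against mock wells and turned into a robust z-score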
Direction: migration robust z-score: higher = faster migration into the scratch; nuclei per well: higher = more cells in the well
Call rule: 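Migration changed when robust z exceeds 2 or falls below -2 and mean nuclei number is at least 3300; otherwise not called changed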
Calls: active = migration changed; inactive = no migration change, or too few cells

GUCA2A [SID255350102] scored migration robust z-score 0.1; nuclei per well, duplicate mean 6884; inactive.
Silencing of MADCAM1 [SID255353409] came out at: migration robust z-score 1.56; nuclei per well, duplicate mean 5533; inactive.
After knock-down of GBA3 [SID255359585], the screen gave migration robust z-score -1.29; nuclei per well, duplicate mean 5514; inactive.
For FRMD3 [SID255364546], the entry reads migration robust z-score -0.09; nuclei per well, duplicate mean 4082; inactive.
With knock-down of RBM3 [SID255352067] the results were migration robust z-score 2.08; nuclei per well, duplicate mean 5884; active.
Against TMEM14A [SID255357092], the entry reads migration robust z-score -0.39; nuclei per well, duplicate mean 5214; inactive.
After knock-down of ANGPT4 [SID255357688], the record shows migration robust z-score -1.06; nuclei per well, duplicate mean 4587; inactive.
Depletion of FCRL4 [SID255360989] resulted in: migration robust z-score -1.77; nuclei per well, duplicate mean 6610; inactive.
Against RIOX1 [SID255360397], the entry reads migration robust z-score 0.9; nuclei per well, duplicate mean 5222; inactive.
Knock-down of ERBIN [SID255358953] came out at: migration robust z-score -0.34; nuclei per well, duplicate mean 5946; inactive.
Depletion of VSIG2 [SID255356345] came out at: migration robust z-score -0.48; nuclei per well, duplicate mean 4320; inactive.
For C2orf15 [SID255363461] the deposit lists migration robust z-score -1.27; nuclei per well, duplicate mean 4194; inactive.
For FABP5 [SID255349612], the entry reads migration robust z-score 0.08; nuclei per well, duplicate mean 5757; inactive.
Knock-down of CUBN [SID255353369] resulted in: migration robust z-score 0.08; nuclei per well, duplicate mean 6369; inactive.
